# Cleaved PARP in drug-treated melanoma cells

All values are for the listed drug together with U73122 (2000 nM): COc1ccc2c(c1)CCC1C2CCC2(C)C(NCCCCCCN3C(=O)C=CC3=O)CCC12 (stereo not shown)

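Human melanoma cell lines in 1,536-well plates were treated with two drugs together for 72 h, then fixed, stained and imaged. The read-out is the fraction of cleaved-PARP-positive nuclei, in % of that fraction in the DMSO control; 200 means twice the control level of this apoptosis marker. Concentrations were fixed for each drug; these are the higher of two levels. No replicate spread is given; individual values may be noisy. Basal and induced levels differ widely between cell lines.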 Only some of the drugs and lines screened are listed, without regard to their results.

| # | Partner | LOX IMVI | WM3619 | WM451Lu | RVH-421 | WM115 | WM1716 |
|---|---|---|---|---|---|---|---|
| 1 | Cc1nc(Nc2ncc(C(=O)Nc3c(C)cccc3Cl)s2)cc(N2CCN(CCO)CC2)n1 at 20 nM | 168 | 144 | 41.1 | 254 | 258 | 2730 |
| 2 | CS(=O)(=O)c1ccc(C(=O)Nc2ccc(Cl)c(-c3ccccn3)c2)c(Cl)c1 at 5000 nM | 147 | 228 | 68.2 | 127 | 133 | 101 |
| 3 | C[C@]12O[C@H](C[C@]1(O)CO)n1c3ccccc3c3c4c(c5c6ccccc6n2c5c31)CNC4=O at 20 nM | 110 | 171 | 151 | 47.5 | 140 | 75.6 |
| 4 | Cn1cc(C2=C(c3cn(C4CCN(Cc5ccccn5)CC4)c4ccccc34)C(=O)NC2=O)c2ccccc21 at 4000 nM | 137 | 97.3 | 88.1 | 204 | 52.8 | 652 |
| 5 | O=c1cc(-c2cccc3c2Sc2ccccc2S3)oc(N2CCOCC2)c1 at 5000 nM | 224 | 143 | 140 | 51.9 | 62.2 | 103 |
| 6 | Cc1ccc(NC(=O)c2cccc(N(C)C)c2)cc1NC(=O)c1ccc(O)cc1 at 10000 nM | 62.3 | 252 | 141 | 96.0 | 65.2 | 39.8 |
| 7 | CCCCCCCCCCCC1=C(O)C(=O)C=C(O)C1=O at 6000 nM | 24.0 | 139 | 36.1 | 226 | 126 | 68.2 |
| 8 | N#CC[C@H](C1CCCC1)n1cc(-c2ncnc3[nH]ccc23)cn1 at 5000 nM | 144 | 209 | 69.3 | 76.5 | 106 | 132 |
| 9 | CCCS(=O)(=O)Nc1ccc(F)c(C(=O)c2c[nH]c3ncc(Cl)cc23)c1F at 400 nM | 255 | 160 | 124 | 114 | 120 | 88.3 |
| 10 | Cc1ccc(Nc2nccc(N(C)c3ccc4c(C)n(C)nc4c3)n2)cc1S(N)(=O)=O at 2000 nM | 119 | 100 | 22.6 | 340 | 44.4 | 114 |
| 11 | O=S(=O)(c1ccccc1)N(CC(F)(F)F)c1ccc(C(O)(C(F)(F)F)C(F)(F)F)cc1 at 7000 nM | 322 | 275 | 37.2 | 61.5 | 114 | 61.8 |
| 12 | OCc1c[nH]c2ccccc12 at 4000 nM | 31.0 | 123 | 125 | 83.7 | 167 | 99.1 |
| 13 | CCCCCCCCCCCCCCCCCCOP(=O)([O-])OC1CC[N+](C)(C)CC1 at 2000 nM | 406 | 145 | 29.6 | 90.0 | 60.7 | 144 |
| 14 | C[C@@H](N)c1ccc(C(=O)Nc2ccnc3[nH]ccc23)cc1 at 2000 nM | 165 | 256 | 54.6 | 118 | 129 | 352 |
| 15 | O=c1[nH]nc(Sc2ncc([N+](=O)[O-])s2)n1-c1ccc2c(c1)OCCO2 at 1000 nM | 133 | 120 | 107 | 109 | 167 | 130 |
| 16 | C[C@@H](Oc1cc(-c2cnn(C3CCNCC3)c2)cnc1N)c1c(Cl)ccc(F)c1Cl at 1000 nM | 75.5 | 122 | 146 | 123 | 20.5 | 82.3 |
| 17 | Clc1ccc(Nc2nnc(Cc3ccncc3)c3ccccc23)cc1 at 10000 nM | 109 | 372 | 201 | 106 | 47.6 | 64.8 |
| 18 | CC(C)(C)c1cnc(CSc2cnc(NC(=O)C3CCNCC3)s2)o1 at 50 nM | 154 | 183 | 86.2 | 136 | 90.5 | 169 |
| 19 | O=C(Nc1cccc(Cl)c1)Nc1ncc(CCNc2ncnc3ccsc23)s1 at 4 nM | 105 | 82.3 | 165 | 245 | 158 | 34.3 |
| 20 | C=CCNC1=C2C[C@@H](C)C[C@H](OC)[C@H](O)[C@@H](C)/C=C(\C)[C@H](OC(N)=O)[C@@H](OC)/C=C\C=C(/C)C(=O)NC(=CC1=O)C2=O at 10 nM | 116 | 176 | 190 | 77.4 | 345 | 120 |
| 21 | Nc1cccc2c1CN(C1CCC(=O)NC1=O)C2=O (stereo not shown) at 5000 nM | 117 | 121 | 103 | 134 | 61.6 | 65.1 |
| 22 | O=C(O)c1ccc(-c2c[nH]c3ncc(-c4ccccc4)cc23)cc1C1CCCC1 at 800 nM | 99.7 | 143 | 125 | 80.1 | 49.4 | 141 |
| 23 | Cc1cc(Nc2cc(N3CCN(C)CC3)nc(Sc3ccc(NC(=O)C4CC4)cc3)n2)n[nH]1 at 30 nM | 68.1 | 131 | 90.2 | 82.7 | 76.7 | 20.9 |
| 24 | Oc1nc(-c2ccc(C(F)(F)F)cc2)nc2c1CSCC2 at 10000 nM | 135 | 122 | 181 | 49.5 | 55.2 | 60.3 |
| 25 | Cn1cc(/C=C2\C(=O)Nc3cccnc32)c2ccccc21 at 2000 nM | 135 | 100 | 65.1 | 87.3 | 128 | 82.7 |
| 26 | Cc1cc(Nc2cc(N3CCN(C)CC3)nc(/C=C/c3ccccc3)n2)n[nH]1 at 200 nM | 63.6 | 163 | 184 | 117 | 170 | 192 |

For reference, 3 entries once more:

Partner	LOX IMVI	WM3619	WM451Lu	RVH-421	WM115	WM1716
C=CCNC1=C2C[C@@H](C)C[C@H](OC)[C@H](O)[C@@H](C)/C=C(\C)[C@H](OC(N)=O)[C@@H](OC)/C=C\C=C(/C)C(=O)NC(=CC1=O)C2=O at 10 nM	116	176	190	77.4	345	120
O=c1[nH]nc(Sc2ncc([N+](=O)[O-])s2)n1-c1ccc2c(c1)OCCO2 at 1000 nM	133	120	107	109	167	130
Cc1ccc(Nc2nccc(N(C)c3ccc4c(C)n(C)nc4c3)n2)cc1S(N)(=O)=O at 2000 nM	119	100	22.6	340	44.4	114

Source: doi:10.1371/journal.pone.0140310, primary screening data, rounded.